From PMC6986101, “The mitochondrial HSP90 paralog TRAP1 forms an OXPHOS-regulated tetramer and is involved in mitochondrial metabolic homeostasis” (BMC Biology, 2020)
Results are given in words; binding and its absence hold for the method and conditions named. Some entries that bind do so weakly or less than the wild type. Tags and fused reporters may be left off the sequences shown.

Legend:
[1] = target: WT TRAP1 with C-terminal HA tag (pcDNA3.1 (+) MTS-TRAP1-HA) (human) (UniProt Q12931); experiment: native gel or EMSA; clear native PAGE (6% or 8% Tris-glycine, 4 °C) of 30 μg mitochondrial extract, immunoblot with anti-TRAP1; cells also treated with hypoxia, oligomycin, rotenone, antimycin A or LDHi, or grown on different carbon sources
[2] = target: TRAP1 mutant E115A/R402A with C-terminal HA tag (human) (UniProt Q12931); experiment: as above

| Binder | binding [1] | binding [2] |
| --- | --- | --- |
| WT TRAP1 with C-terminal HA tag (pcDNA3.1 (+) MTS-TRAP1-HA) (protein, UniProt Q12931 60-704) STQTAEDKEEPLHSIISSTESVQGSTSKHEFQAETKKLLDIVARSLYSEKEVFIRELISNASDALEKLRHKLVSDGQALPEMEIHLQTNAEKGTITIQDTGIGMTQEELVSNLGTIARSGSKAFLDALQNQAEASSKIIGQFGVGFYSAFMVADRVEVYSRSAAPGSLGYQWLSDGSGVFEIAEASGVRTGTKIIIHLKSDCKEFSSEARVRDVVTKYSNFVSFPLYLNGRRMNTLQAIWMMDPKDVREWQHEEFYRYVAQAHDKPRYTLHYKTDAPLNIRSIFYVPDMKPSMFDVSRELGSSVALYSRKVLIQTKATDILPKWLRFIRGVVDSEDIPLNLSRELLQESALIRKLRDVLQQRLIKFFIDQSKKDAEKYAKFFEDYGLFMREGIVTATEQEVKEDIAKLLRYESSALPSGQLTSLSEYASRMRAGTRNIYYLCAPNRHLAEHSPYYEAMKKKDTEVLFCFEQFDELTLLHLREFDKKKLISVETDIVVDHYKEEKFEDRSPAAECLSEKETEELMAWMRNVLGSRVTNVKVTLRLDTHPAMVTVLEMGAARHFLRMQQLAKTQEERAQLLQPTLEINPRHALIKKLNQLRASEPGLAQLLVDQIYENAMIAAGLVDDPRAMVGRLNELLVKALERH | binds |  |
| TRAP1 mutant E115A/R402A with C-terminal HA tag (protein, UniProt Q12931 60-704) STQTAEDKEEPLHSIISSTESVQGSTSKHEFQAETKKLLDIVARSLYSEKEVFIRALISNASDALEKLRHKLVSDGQALPEMEIHLQTNAEKGTITIQDTGIGMTQEELVSNLGTIARSGSKAFLDALQNQAEASSKIIGQFGVGFYSAFMVADRVEVYSRSAAPGSLGYQWLSDGSGVFEIAEASGVRTGTKIIIHLKSDCKEFSSEARVRDVVTKYSNFVSFPLYLNGRRMNTLQAIWMMDPKDVREWQHEEFYRYVAQAHDKPRYTLHYKTDAPLNIRSIFYVPDMKPSMFDVSRELGSSVALYSRKVLIQTKATDILPKWLRFIRGVVDSEDIPLNLSAELLQESALIRKLRDVLQQRLIKFFIDQSKKDAEKYAKFFEDYGLFMREGIVTATEQEVKEDIAKLLRYESSALPSGQLTSLSEYASRMRAGTRNIYYLCAPNRHLAEHSPYYEAMKKKDTEVLFCFEQFDELTLLHLREFDKKKLISVETDIVVDHYKEEKFEDRSPAAECLSEKETEELMAWMRNVLGSRVTNVKVTLRLDTHPAMVTVLEMGAARHFLRMQQLAKTQEERAQLLQPTLEINPRHALIKKLNQLRASEPGLAQLLVDQIYENAMIAAGLVDDPRAMVGRLNELLVKALERH |  | binds |
